Test results from US11639371B2, “Peptidylic inhibitors of nucleolin (NCL) targeting CAG-repeat RNA toxicity and methods for reducing polyQ-mediated toxicity in polyQ diseases” (The Chinese University of Hong Kong, priority 2016, dated 2023).
At least one peptide structure holds a part that was inferred or is arguable (an end, a ring closure or a residue). Peptide text beside a SMILES is read from it.

Assays:
Format in all cases: cell-based, Human
[1] = system: MJDCAG78-expressing HEK293 cells; experiment: LDH cytotoxicity assay, MJD disease cell model; details: MJDCAG78-expressing HEK293, CAG-repeat RNA and polyQ protein
Method: (§1) Human embryonic kidney 293 cells were seeded on a 24-well plate at a density of 0.5×10^5, and pcDNA3.1-MJDCAG27/78 or, pEGFPCAG78 or, pcDNA3.1-SCA2CAG22/72/104 or pEGFP-trHttCAG23/73/145 construct was used to transfect the cells. Lactate dehydrogenase enzyme activity in the cell culture medium was measured 72 h post-transfection and drugs treatment using the Cytotox 96 non-radioactive cytotoxicity assay (Promega).

[2] = system: trHttCAG72/145-expressing HEK293 cells; experiment: LDH cytotoxicity assay, Htt disease cell model; details: trHttCAG72/145-expressing HEK293, CAG-repeat RNA and polyQ protein
Method: as §1

[3] = system: SCA2CAG72/104-expressing HEK293 cells; experiment: LDH cytotoxicity assay, SCA2 disease cell model; details: SCA2CAG72/104-expressing HEK293, CAG-repeat RNA and polyQ protein
Method: as §1

Measured: suppression of cell death

CC[C@H](C)[C@H](NC(=O)CNC(=O)[C@H](CCCCN)NC(=O)[C@H](CO)NC(=O)[C@H](CCCCN)NC(=O)CNC(=O)[C@H](CC(=O)O)NC(=O)[C@H](CCCCN)NC(=O)[C@H](CO)NC(=O)[C@@H](NC(=O)[C@H](CC(C)C)NC(=O)[C@H](CCCNC(=N)N)NC(=O)[C@@H](NC(=O)[C@H](CCC(=O)O)NC(=O)[C@H](C)N)[C@@H](C)CC)C(C)C)C(=O)N[C@@H](C)C(=O)N[C@@H](Cc1ccc(O)cc1)C(=O)N[C@H](C(=O)N[C@@H](CCC(=O)O)C(=O)N[C@@H](Cc1ccccc1)C(=O)N[C@@H](CCCCN)C(=O)O)[C@@H](C)CC [P3L] (H-AEIRLVSKDGKSKGIAYIEFK-OH)
significant but not fully inhibition: [1] | [2] | [3]
